Laboratory results as given in paper PMC6211276, “Computer-aided molecular design of pyrazolotriazines targeting glycogen synthase kinase 3” (Journal of Enzyme Inhibition and Medicinal Chemistry, 2018).

Test: In vitro parallel artificial membrane permeability assay (PAMPA-BBB)
Settings: pig, pH 7.4
Method: Prediction of the brain penetration was evaluated using a parallel artificial membrane permeability assay (PAMPA). Ten commercial drugs, phosphate buffer saline solution at pH 7.4 (PBS), ethanol, and dodecane were purchased from Sigma Aldrich, Across organics and Fluka. […] Filter PDVF membrane units (diameter 30 mm, pore size 0.45 μm) from Symta were used to filter the samples. A 96-well plate UV, (Thermoscientific, Varioskan Lux multimode microplate reader) was used for the UV measurements. […] Then 100 μL of this compound stock solution was taken, and 1400 μL of ethanol and 3500 μL of PBS pH 7.4 buffer were added to reach 30% of ethanol concentration in the experiment. These solutions were filtered. The acceptor 96-well microplate was filled with 180 μL of PBS:ethanol (70:30). The donor 96-well plate was coated with 4 μL of porcine brain lipid in dodecane (20 mg mL^−1), and after 5 min, 180 μL of each compound solution was added. Then 1−2 mg of every compound to be determined for their ability to pass the brain barrier were dissolved in 1500 μL of ethanol and 3500 μL of PBS pH 7.4 buffer, filtered, and then added to the donor 96-well plate. […] The concentration of compounds and commercial drugs in the acceptor and the donor wells was determined by UV plate reader. Every sample was analysed at three to five wavelengths, in three wells and in three independent runs. […]

Papp at 4 h: 0.6 ± 0.4 ×10⁻⁶ cm/s
Structure (SMILES): CC(C)NCC(O)COc1ccc(CC(N)=O)cc1 (stereo not shown) [Atenolol, reference compound]
